From article PMC9501056
Results are given in words; binding and its absence hold for the method and conditions named. Binding seen in cells or lysates may run through a third protein.

What was measured:
[1] = molecular target: T1, BEI (Oryza sativa subsp. indica cv. IR36 (endogenous in developing seeds)) (UniProt Q01401); test: co-IP; soluble proteins of developing seeds of WT (IR36) at 10 DAF incubated with isozyme-specific antibodies and protein A magnetic beads; washed with PBS pH 7.4; Western blotting
T1 sequence: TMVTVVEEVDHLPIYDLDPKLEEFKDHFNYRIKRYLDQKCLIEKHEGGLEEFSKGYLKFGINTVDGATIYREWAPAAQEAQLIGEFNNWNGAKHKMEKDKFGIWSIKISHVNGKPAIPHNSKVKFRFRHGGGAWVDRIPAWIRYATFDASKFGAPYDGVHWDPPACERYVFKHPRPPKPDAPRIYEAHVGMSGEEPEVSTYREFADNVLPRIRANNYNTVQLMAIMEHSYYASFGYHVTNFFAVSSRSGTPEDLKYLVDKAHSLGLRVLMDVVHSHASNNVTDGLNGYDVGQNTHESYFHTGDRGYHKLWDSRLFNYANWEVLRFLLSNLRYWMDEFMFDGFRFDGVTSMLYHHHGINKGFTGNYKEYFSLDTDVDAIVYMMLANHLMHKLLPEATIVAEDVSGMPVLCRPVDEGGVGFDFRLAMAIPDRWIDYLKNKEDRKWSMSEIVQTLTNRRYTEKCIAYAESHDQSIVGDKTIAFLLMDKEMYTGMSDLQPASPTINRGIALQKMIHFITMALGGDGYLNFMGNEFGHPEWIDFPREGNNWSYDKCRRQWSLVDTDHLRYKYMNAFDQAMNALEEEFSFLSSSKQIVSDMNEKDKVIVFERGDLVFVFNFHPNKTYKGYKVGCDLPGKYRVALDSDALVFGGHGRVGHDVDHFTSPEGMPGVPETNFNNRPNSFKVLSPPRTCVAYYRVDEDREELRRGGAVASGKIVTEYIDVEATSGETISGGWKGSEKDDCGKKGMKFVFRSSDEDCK

[2] = molecular target: T2, SSIIa (Oryza sativa subsp. indica cv. IR36 (endogenous in developing seeds)) (UniProt P0C586); test: as above
T2 sequence: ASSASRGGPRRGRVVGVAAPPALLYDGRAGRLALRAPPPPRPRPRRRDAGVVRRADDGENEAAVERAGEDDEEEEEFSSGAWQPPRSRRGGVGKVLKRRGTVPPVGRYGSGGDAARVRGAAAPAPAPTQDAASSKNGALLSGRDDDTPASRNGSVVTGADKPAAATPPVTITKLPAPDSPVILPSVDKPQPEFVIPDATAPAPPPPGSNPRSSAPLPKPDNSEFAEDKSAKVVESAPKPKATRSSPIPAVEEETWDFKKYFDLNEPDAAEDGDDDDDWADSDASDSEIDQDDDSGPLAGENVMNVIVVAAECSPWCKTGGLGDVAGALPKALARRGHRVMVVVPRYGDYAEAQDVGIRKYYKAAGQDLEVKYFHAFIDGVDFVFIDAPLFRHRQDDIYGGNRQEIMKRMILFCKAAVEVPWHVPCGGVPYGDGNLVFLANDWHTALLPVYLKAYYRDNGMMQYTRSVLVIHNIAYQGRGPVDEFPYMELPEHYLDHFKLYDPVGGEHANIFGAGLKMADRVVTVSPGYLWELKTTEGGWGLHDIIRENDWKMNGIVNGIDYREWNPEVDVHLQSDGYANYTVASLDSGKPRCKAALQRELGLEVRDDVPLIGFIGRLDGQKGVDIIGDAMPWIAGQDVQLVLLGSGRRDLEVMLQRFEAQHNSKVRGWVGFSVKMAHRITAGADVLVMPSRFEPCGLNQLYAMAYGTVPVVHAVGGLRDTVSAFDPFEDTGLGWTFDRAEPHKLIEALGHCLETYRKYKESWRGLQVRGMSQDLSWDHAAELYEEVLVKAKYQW

[3] = molecular target: T1, BEI (Oryza sativa subsp. indica cv. IR36 (endogenous in developing seeds)); test: co-IP; soluble proteins of developing seeds of WT (IR36) at 5 DAF incubated with isozyme-specific antibodies and protein A magnetic beads; washed with PBS pH 7.4; Western blotting
[4] = molecular target: SSIIIa (Oryza sativa subsp. indica cv. IR36 (endogenous in developing seeds)); test: as above
[5] = molecular target: T1, BEI (Oryza sativa subsp. indica cv. IR36 (endogenous in developing seeds)); test: co-IP; soluble proteins of developing seeds of the be2b mutant at 15 DAF incubated with isozyme-specific antibodies and protein A magnetic beads; washed with PBS pH 7.4; Western blotting
[6] = molecular target: SSIIIa (Oryza sativa subsp. indica cv. IR36 (endogenous in developing seeds)); test: as above
[7] = molecular target: T2, SSIIa (Oryza sativa subsp. indica cv. IR36 (endogenous in developing seeds)); test: as above
[8] = substrate: T3, SSI (Oryza sativa subsp. indica cv. IR36 (endogenous in developing seeds)) (UniProt A2Y9M4); test: co-IP; soluble proteins of developing seeds of the be2b mutant at 10 DAF incubated with isozyme-specific antibodies and protein A magnetic beads; washed with PBS pH 7.4; Western blotting
T3 sequence: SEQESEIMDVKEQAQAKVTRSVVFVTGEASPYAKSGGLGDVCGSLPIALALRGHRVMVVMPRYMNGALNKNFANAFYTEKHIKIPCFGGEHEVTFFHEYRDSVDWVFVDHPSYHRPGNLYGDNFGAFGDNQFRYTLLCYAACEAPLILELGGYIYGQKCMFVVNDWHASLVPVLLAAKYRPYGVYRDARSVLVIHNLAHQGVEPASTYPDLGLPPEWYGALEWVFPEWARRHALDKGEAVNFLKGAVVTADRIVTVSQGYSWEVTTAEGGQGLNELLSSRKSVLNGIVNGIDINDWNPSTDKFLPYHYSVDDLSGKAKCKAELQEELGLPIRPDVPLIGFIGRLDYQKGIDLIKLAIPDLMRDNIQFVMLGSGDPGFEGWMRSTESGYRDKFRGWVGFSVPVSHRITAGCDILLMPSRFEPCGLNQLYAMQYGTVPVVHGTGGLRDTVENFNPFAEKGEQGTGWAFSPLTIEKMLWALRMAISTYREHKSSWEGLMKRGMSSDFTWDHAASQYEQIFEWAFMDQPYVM

Measured: binding

B1: ISA1 (enzyme, UniProt D0TZF0 55-803)
chain: SVASAVEVGVGEDEEEGVEEEEEEVEAVVMPERYALGGACRVLAGMPAPLGATALDGGVNFAVYSAGASAASLCLFTPDDLEADEVTEEVPLDPLFNRTGNVWHVFIEGELHNMLYGYRFDGMFAPHCGQYFDVSNVVVDPYAKAVISRGEYGVPGPGGDCWPQMAGMIPLPYSTFDWQGDLPLRYPQKDLVIYEMHLRGFTKHSSSNVEHPGTYIGAISKLDYLKELGVNCVELMPCHEFNELEYFSCSSKMNFWGYSTINFFSPMIRYSSGGIRNCGRDAINEFKTFVREAHKRGIEVIMDVVFNHTAEGNEKGPILSFRGIDNSTYYMLAPKGEFYNYSGCGNTFNCNHPVVREFIVDCLRYWVTEMHVDGFRFDLASIMTRGCSLWDPVNVYGSPVEGDMTTTGTPLATPPLIDMISNDPILGDVKLIAEAWDAGGLYQVGQFPHWKIWSEWNGKYRDIVRQFIKGTDGFAGGFAECLCGSPHLYQAGGRKPWHSINFVCAHDGFTLADLVTYNKKYNSSNGEDNRDGENHNLSWNCGEEGEFAGLSVKRLRKRQMRNFFVSLMVSQGVPMFYMGDEYGHTKGGNNNTYCHDHYVNYFRWDKKEESSDLQRFCSLMTKFRKQCESLGLADFPTAQRLHWHGHQPGKPDWSETSRFVAFSTKDETKGEIYVAFNASHLPAVVGLPERPGYRWEPLVDTGKPAPYDFLTDDLPDRAHAVHLFSHFLNSNLYPMLSYSSIILELQPDD
no binding: all assays above
